Experimental data reported in article PMC12518853.
Results are given in words; binding and its absence hold for the method and conditions named. Binding seen in cells or lysates may run through a third protein.

Chains of the proteins cited; added tags and fusions are not shown. Residues count along the entry.
UniProt P13597, residues 28-537: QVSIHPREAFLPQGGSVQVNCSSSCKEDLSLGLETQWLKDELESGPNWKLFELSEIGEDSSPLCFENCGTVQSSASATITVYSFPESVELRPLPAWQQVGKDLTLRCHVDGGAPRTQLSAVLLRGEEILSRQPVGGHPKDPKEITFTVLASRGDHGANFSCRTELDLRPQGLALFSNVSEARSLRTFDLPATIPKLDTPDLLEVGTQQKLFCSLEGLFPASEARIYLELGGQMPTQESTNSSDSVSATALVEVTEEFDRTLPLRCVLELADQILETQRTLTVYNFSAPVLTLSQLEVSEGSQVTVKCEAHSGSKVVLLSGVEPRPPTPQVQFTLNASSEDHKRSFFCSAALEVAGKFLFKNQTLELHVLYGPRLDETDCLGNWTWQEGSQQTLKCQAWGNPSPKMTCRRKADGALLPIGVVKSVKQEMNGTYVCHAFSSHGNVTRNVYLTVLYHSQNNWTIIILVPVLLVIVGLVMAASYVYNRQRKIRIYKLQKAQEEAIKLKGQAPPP
UniProt Q6PHN9: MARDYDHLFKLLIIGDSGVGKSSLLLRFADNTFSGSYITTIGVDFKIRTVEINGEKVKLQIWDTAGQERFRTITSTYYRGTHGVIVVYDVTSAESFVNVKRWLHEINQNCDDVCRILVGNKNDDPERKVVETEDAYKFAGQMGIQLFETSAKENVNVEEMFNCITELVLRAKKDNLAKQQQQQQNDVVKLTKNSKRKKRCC

Target: intercellular adhesion molecule 1 (ICAM1) (mouse (endogenous, cells of the co-IP not named)) (UniProt P13597)
Assay: co-IP; Pierce MS-compatible Magnetic IP Kit; cell lysates incubated with the antibody at 4 °C overnight, then protein A/G magnetic beads for 2 h, five washes, eluate immunoblotted

| Molecule | binding |
| --- | --- |
| Rab35 (from UniProt Q6PHN9 1-201) | no binding |
| Rab27a (protein, UniProt Q9ERI2 1-221) MSDGDYDYLIKFLALGDSGVGKTSVLYQYTDGKFNSKFITTVGIDFREKRVVYRANGPDGAVGRGQRIHLQLWDTAGQERFRSLTTAFFRDAMGFLLLFDLTNEQSFLNVRNWISQLQMHAYCENPDIVLCGNKSDLEDQRAVKEEEARELAEKYGIPYFETSAANGTNISHAIEMLLDLIMKRMERCVDKSWIPEGVVRSNGHTSADQLSEEKEKGLCGC | no binding |
